Laboratory results reported in PMC12078756.
Results are given in words; binding and its absence hold for the method and conditions named. Binding seen in cells or lysates may run through a third protein. Some entries that bind do so weakly or less than the wild type. Where a sequence is shown, tags or fusion partners need not be part of it.

Amino acid sequences for entries named in this document (tags omitted). A change or cut given only in a name is not applied to a line headed by its entry. Chains listed by the source or under a name are the forms on record and can include a tag or linker.
GFP-tagged IFT20 (intraflagellar transport protein 20) (Q8IY31, form named): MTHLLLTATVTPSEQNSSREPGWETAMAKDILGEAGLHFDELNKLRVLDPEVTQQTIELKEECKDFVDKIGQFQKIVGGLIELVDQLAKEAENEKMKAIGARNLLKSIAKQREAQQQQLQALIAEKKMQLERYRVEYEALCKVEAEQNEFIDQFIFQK

Biological target: GFP-tagged IFT20 (intraflagellar transport protein 20) (human) (UniProt Q8IY31)
Test: co-IP; exogenous GFP-IFT20 and HA-IFT88; lysate (10 mM Tris, 150 mM NaCl, 6 mM EDTA, 1 mM EGTA, 2% Triton X-100, 20% glycerol, 2 mM sodium pyrophosphate, pH 7.5) incubated with anti-GFP beads at 4°C overnight; immunoblotting

B1: HA-IFT88 (protein, UniProt Q13099-1 1-833)
chain: MKFTNTKVQMMQNVHLAPETDEDDLYSGYNDYNPIYDIEELENDAAFQQAVRTSHGRRPPITAKISSTAVTRPIATGYGSKTSLASSIGRPMTGAIQDGVTRPMTAVRAAGFTKAALRGSAFDPLSQSRGPASPLEAKKKDSPEEKIKQLEKEVNELVEESCIANSCGDLKLALEKAKDAGRKERVLVRQREQVTTPENINLDLTYSVLFNLASQYSVNEMYAEALNTYQVIVKNKMFSNAGILKMNMGNIYLKQRNYSKAIKFYRMALDQVPSVNKQMRIKIMQNIGVTFIQAGQYSDAINSYEHIMSMAPNLKAGYNLTICYFAIGDREKMKKAFQKLITVPLEIDEDKYISPSDDPHTNLVTEAIKNDHLRQMERERKAMAEKYIMTSAKLIAPVIETSFAAGYDWCVEVVKASQYVELANDLEINKAVTYLRQKDYNQAVEILKVLEKKDSRVKSAAATNLSALYYMGKDFAQASSYADIAVNSDRYNPAALTNKGNTVFANGDYEKAAEFYKEALRNDSSCTEALYNIGLTYEKLNRLDEALDCFLKLHAILRNSAEVLYQIANIYELMENPSQAIEWLMQVVSVIPTDPQVLSKLGELYDREGDKSQAFQYYYESYRYFPCNIEVIEWLGAYYIDTQFWEKAIQYFERASLIQPTQVKWQLMVASCFRRSGNYQKALDTYKDTHRKFPENVECLRFLVRLCTDLGLKDAQEYARKLKRLEKMKEIREQRIKSGRDGSGGSRGKREGSASGDSGQNYSASSKGERLSARLRALPGTNEPYESSSNKEIDASYVDPLGPQIERPKTAAKKRIDEDDFADEELGDDLLPE
binding: binds
